Test results reported in paper PMC6296734, “The CbrB Regulon: Promoter dissection reveals novel insights into the CbrAB expression network in Pseudomonas putida”.
Results are given in words; binding and its absence hold for the method and conditions named.

What was measured:
[1] = target: CbrB (Pseudomonas putida); test: SEC; as a2, 2 μM CbrB treated with 80 mM acetyl phosphate before loading; both purified
[2] = target: CbrB (Pseudomonas putida); test: SEC; Superdex 200 increase 10/300GL, 500 μl of 2 μM CbrB, room temperature, CbrB binding buffer (50 mM Tris HCl pH 7.4, 50 mM KCl, 0.1 mM DTT, 0.1 mM EDTA, 10 mM MgCl2), 0.5 ml/min; both purified
[3] = target: CbrB (Pseudomonas putida); test: AUC; sedimentation velocity, 20 °C, 45,000 rpm, CbrB binding buffer (50 mM Tris HCl pH 7.4, 50 mM KCl, DTT, 0.1 mM EDTA, 10 mM MgCl2), protein concentration printed as 60 μm; c(s) analysis with sedfit; both purified
[4] = target: CbrB (Pseudomonas putida); test: SEC; as a2, 2 μM CbrB incubated with 4.5 nM DNA fragment containing the crcZ promoter region (subsites F1, R1, R2) before loading; both purified

binding [1]: no binding (tested: 2 μM)
binding [2]: no binding (tested: 2 μM)
binding [3]: no binding (tested: 60 μm)
binding [4]: no binding (tested: 2 μM)
B1: CbrB (protein, UniProt A0ABM7EKZ2 1-480)
chain: MPHILIVEDETIIRSALRRLLERNQYQVSEAGSVQEAQERFSIATFDLIVSDLRLPGAPGTELIKLGQGTPVLIMTSYASLRSAVDSMKMGAVDYIAKPFDHDEMLQAVARILRDRQNAPAAASAAEPRATNGKAAPADKGSAAAANGEIGIIGSCPPMQDMYSKIRKVAPTDSNVLIQGESGTGKELVARALHNLSRRAKAPMISVNCAAIPETLIDSELFGHEKGAFTGASAGRAGLVEAADGGTLFLDEIGELPLEAQARLLRVLQEGEIRRVGSVQSQKVDVRLIAATHRDLKNLAKAGQFREDLYYRLHVIALKLPALRERGSDVNEIASAFLARQSARIGRDDLHFSAEAEQAIRHYSWPGNVRELENAVERAVILSESAEISAELLGIDIELSDLEEDEILNNALVVASAASASHEPTEDLSLEDYFQHFVLEHQDHMTETELARKLGVSRKCLWERRQRLGIPRRKSNATSE
